Laboratory results as given in the supplement of paper PMC10849652.
This is one part of the list.

By UniProt entry, the sequences of proteins in these tests, tags left out. Where a name states a change or a piece, a line headed by the entry shows the natural chain unless it says otherwise.
UniProt Q9UKX7: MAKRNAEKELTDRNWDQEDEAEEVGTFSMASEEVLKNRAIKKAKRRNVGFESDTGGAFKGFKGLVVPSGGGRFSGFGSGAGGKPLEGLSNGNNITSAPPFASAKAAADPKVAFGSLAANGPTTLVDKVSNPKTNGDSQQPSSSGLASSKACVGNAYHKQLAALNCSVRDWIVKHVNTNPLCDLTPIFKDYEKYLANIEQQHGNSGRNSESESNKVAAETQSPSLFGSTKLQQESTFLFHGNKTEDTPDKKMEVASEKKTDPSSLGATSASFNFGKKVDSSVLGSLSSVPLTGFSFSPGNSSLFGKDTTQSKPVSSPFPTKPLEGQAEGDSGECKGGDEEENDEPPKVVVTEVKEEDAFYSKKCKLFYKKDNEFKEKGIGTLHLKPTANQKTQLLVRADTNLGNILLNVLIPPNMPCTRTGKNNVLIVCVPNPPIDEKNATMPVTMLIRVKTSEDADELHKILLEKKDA
UniProt Q8TEM1: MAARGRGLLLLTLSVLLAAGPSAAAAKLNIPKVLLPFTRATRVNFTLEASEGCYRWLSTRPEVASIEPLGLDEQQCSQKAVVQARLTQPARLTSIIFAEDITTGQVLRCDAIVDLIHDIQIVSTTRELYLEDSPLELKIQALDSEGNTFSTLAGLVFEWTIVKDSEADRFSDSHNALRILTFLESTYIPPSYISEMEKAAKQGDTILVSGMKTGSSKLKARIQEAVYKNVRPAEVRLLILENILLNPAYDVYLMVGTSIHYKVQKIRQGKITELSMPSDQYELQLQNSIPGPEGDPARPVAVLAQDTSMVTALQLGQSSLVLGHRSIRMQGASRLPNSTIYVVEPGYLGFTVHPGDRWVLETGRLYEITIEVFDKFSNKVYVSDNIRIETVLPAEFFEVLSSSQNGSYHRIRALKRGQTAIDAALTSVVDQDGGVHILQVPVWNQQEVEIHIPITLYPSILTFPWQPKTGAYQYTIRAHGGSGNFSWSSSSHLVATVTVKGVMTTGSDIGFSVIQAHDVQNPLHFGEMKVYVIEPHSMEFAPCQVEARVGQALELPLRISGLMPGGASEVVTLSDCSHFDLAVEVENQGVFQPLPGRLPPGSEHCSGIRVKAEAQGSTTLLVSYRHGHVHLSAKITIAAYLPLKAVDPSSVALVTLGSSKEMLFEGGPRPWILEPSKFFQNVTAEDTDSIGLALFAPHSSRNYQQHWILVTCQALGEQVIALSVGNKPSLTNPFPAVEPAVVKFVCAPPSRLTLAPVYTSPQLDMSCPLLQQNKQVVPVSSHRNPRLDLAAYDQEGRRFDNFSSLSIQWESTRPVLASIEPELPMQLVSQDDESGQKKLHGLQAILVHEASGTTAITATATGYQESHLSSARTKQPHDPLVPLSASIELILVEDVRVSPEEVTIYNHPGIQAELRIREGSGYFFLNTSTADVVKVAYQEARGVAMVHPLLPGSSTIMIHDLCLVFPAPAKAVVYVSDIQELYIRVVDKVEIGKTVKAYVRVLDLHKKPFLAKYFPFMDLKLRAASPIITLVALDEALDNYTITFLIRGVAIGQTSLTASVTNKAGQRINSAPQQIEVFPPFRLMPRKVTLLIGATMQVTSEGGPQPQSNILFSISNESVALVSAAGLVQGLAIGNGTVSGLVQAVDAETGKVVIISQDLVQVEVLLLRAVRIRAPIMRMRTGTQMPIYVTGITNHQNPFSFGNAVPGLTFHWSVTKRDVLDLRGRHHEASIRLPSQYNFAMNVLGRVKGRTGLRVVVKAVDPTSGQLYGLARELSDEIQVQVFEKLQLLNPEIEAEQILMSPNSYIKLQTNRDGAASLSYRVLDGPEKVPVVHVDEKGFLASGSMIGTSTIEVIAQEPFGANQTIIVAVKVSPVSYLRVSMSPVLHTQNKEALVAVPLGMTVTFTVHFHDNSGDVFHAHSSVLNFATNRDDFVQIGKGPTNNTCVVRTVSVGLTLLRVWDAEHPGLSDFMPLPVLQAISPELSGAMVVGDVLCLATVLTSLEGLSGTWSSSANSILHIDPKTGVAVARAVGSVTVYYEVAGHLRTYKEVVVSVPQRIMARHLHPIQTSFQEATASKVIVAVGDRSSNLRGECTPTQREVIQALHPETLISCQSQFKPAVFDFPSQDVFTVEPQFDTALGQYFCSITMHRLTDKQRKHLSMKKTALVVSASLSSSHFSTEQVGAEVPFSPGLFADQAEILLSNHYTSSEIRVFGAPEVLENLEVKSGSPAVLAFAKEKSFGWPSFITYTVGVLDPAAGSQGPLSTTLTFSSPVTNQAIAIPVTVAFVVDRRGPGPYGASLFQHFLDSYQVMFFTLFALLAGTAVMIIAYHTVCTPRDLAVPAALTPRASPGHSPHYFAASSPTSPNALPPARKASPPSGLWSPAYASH
UniProt Q86UY8: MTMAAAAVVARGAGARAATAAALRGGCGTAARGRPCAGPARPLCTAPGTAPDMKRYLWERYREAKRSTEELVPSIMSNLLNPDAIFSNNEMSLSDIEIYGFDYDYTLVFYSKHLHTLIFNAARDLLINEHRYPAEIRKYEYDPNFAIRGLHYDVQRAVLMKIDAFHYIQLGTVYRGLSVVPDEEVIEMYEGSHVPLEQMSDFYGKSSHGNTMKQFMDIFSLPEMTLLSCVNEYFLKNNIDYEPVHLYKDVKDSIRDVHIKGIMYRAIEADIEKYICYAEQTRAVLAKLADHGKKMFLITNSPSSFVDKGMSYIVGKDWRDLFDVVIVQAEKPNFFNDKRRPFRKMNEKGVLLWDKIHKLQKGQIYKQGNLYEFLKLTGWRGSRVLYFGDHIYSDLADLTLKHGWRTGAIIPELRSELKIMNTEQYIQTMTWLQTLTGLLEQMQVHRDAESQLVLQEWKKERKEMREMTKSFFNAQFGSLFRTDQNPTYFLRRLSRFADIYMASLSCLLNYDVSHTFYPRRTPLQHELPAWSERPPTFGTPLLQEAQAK
UniProt Q96G74: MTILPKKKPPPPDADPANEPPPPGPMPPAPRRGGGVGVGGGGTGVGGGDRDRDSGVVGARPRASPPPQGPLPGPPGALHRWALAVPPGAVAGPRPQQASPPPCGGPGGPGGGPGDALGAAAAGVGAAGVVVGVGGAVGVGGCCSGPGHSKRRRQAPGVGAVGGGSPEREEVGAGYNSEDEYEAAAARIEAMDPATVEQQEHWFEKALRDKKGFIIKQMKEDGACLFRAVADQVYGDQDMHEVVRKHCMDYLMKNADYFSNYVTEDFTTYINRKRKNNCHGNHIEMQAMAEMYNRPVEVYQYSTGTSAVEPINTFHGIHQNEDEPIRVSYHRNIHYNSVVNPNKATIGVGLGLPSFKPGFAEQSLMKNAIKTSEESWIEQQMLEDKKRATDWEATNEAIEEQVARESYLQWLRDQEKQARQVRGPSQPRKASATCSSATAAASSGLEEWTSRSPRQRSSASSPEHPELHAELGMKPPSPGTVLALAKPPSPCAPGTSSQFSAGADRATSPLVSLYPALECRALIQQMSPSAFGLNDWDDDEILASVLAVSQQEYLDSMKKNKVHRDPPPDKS
UniProt Q96HP4: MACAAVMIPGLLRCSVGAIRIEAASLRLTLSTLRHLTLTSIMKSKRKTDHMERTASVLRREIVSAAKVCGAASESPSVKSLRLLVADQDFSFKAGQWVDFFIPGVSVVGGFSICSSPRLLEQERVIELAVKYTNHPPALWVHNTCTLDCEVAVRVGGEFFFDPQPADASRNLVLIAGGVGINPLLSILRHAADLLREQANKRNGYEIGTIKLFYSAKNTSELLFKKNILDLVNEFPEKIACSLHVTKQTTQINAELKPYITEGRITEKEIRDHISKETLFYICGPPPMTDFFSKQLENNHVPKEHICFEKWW
UniProt Q9H8K7: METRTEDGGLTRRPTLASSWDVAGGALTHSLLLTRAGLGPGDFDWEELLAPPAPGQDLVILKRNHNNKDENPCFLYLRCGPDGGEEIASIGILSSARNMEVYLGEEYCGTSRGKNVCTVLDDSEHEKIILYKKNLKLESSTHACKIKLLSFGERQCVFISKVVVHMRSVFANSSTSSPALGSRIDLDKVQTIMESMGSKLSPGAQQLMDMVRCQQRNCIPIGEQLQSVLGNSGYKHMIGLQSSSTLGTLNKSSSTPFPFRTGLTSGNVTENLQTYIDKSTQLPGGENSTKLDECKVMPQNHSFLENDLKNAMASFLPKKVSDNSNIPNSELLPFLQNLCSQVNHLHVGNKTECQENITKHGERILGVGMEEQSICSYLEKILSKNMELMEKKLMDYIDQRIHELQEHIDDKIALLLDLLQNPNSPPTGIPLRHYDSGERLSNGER
UniProt Q8IVD9: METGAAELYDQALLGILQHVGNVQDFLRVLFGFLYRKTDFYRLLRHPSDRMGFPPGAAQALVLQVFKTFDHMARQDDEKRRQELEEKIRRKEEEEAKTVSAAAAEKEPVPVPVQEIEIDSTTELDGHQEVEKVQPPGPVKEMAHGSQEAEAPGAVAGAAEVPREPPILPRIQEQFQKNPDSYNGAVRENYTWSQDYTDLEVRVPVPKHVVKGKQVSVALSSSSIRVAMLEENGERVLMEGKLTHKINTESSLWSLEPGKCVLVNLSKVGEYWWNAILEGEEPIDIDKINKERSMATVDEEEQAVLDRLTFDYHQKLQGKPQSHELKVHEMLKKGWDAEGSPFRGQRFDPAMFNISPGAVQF
UniProt Q9UBD5: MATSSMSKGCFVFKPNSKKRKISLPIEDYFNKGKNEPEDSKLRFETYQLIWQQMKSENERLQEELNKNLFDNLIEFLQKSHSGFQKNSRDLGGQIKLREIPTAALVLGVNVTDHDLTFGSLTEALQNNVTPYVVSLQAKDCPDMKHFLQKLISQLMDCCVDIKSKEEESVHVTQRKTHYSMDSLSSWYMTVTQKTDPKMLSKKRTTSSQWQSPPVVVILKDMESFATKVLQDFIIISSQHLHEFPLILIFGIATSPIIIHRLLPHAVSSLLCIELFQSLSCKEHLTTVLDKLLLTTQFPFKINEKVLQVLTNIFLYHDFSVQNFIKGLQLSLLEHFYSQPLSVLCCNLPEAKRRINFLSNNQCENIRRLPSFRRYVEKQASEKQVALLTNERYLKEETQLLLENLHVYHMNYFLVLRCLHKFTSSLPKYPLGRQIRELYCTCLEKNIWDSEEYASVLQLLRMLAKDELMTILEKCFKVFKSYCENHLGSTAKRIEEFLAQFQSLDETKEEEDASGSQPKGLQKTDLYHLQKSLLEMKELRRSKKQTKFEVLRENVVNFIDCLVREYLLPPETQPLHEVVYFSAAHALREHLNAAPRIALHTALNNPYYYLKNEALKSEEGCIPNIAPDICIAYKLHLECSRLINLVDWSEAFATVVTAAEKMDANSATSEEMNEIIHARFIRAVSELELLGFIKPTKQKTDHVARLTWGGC
UniProt Q08J23, whole entry, looked up: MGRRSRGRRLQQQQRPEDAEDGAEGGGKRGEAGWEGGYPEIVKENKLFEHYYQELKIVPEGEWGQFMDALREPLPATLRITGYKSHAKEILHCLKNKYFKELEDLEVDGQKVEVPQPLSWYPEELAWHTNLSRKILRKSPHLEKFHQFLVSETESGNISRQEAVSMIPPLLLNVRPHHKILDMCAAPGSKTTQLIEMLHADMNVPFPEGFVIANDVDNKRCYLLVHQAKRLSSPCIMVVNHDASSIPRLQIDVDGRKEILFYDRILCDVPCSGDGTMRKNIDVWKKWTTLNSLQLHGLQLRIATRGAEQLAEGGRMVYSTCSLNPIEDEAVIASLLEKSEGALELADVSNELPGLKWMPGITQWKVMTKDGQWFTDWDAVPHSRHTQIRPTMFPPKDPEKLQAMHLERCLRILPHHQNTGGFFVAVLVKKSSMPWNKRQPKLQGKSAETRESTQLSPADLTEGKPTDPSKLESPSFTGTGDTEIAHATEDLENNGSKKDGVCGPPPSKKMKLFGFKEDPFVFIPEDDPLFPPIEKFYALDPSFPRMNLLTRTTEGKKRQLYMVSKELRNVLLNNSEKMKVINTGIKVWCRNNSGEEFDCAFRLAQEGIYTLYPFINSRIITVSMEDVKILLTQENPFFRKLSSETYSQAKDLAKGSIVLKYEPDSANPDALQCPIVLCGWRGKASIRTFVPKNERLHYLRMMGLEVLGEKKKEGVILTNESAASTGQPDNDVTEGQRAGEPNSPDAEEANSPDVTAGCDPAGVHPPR
UniProt O95747, whole entry, looked up: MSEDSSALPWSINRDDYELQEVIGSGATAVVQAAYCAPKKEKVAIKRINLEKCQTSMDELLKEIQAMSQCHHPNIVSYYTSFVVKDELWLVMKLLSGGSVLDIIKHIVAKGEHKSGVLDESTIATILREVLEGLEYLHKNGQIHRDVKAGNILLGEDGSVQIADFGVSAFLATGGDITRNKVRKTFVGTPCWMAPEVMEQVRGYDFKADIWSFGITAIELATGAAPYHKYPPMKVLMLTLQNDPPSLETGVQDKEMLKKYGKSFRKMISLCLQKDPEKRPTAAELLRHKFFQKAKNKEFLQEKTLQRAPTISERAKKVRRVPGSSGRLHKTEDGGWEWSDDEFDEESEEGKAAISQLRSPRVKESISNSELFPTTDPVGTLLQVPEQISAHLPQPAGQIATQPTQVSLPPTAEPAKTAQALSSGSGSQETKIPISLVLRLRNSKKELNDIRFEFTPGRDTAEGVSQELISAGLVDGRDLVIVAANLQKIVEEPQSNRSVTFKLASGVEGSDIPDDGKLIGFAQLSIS

Key:
Assay in all cases: log2 fold change, soluble protein after heating vs DMSO (PISA); higher = thermal stabilisation; K562 cells, 10 uM, 30 min; active = over 0.2 and 3.5 SD of the protein, either way, in both replicates (recomputed)
[1] = compound: Cc1ccc(NC(=O)c2ccc(CN3CC[C@H](N(C)C)C3)c(C(F)(F)F)c2)cc1Nc1nccc(-c2cncnc2)n1 [bafetinib]
In short: (§1)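 K562 cells at 2×10^6 cells/mL were treated with 10 μM compound for 30 min. Aliquots were heated for 3 min across 48°C-58°C, pooled, and extracted in PBS with 0.5% NP-40 at 4°C; soluble protein was the supernatant after 21,000xg for 90 min. Soluble protein was quantified by TMTpro 16plex LC-MS/MS with channel sums equalised, and reported as log2 fold change in thermal stability against DMSO controls, with values from duplicates.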

[2] = compound: Cc1cccc(CC(=O)N2CCc3c2ccc(-c2cn(C)c4ncnc(N)c24)c3F)n1
In short: as §1

[3] = compound: Cc1cn(-c2cc(NC(=O)c3ccc(C)c(Nc4nccc(-c5cccnc5)n4)c3)cc(C(F)(F)F)c2)cn1 [nilotinib]
In short: as §1

[4] = compound: Cc1nc(Nc2n[nH]c3c2CN(C(=O)N[C@H](CN(C)C)c2ccccc2)C3(C)C)c2sccc2n1
In short: as §1

[5] = compound: Cc1nc(Nc2ncc(C(=O)Nc3c(C)cccc3Cl)s2)cc(N2CCN(CCO)CC2)n1 [dasatinib]
In short: as §1

[6] = compound: Cc1ncc(-c2ccnc(Nc3ccc(S(C)(=O)=O)cc3)n2)n1C(C)C
In short: as §1

[7] = compound: Cn1cc(-c2ccc3c(c2)CCN3C(=O)Cc2cccc(C(F)(F)F)c2)c2c(N)ncnc21
In short: as §1

[8] = compound: Cn1cc(-c2ccc3nnc(C(F)(F)c4ccc5ncccc5c4)n3n2)cn1
In short: as §1

[9] = compound: Cn1cncc1[C@@](N)(c1ccc(Cl)cc1)c1ccc2c(c1)c(-c1cccc(Cl)c1)cc(=O)n2C [tipifarnib]
In short: as §1

[10] = compound: FC(F)(F)c1ccc(/C=C/c2nc(COc3ccc(CCCCn4ccnn4)cc3)co2)cc1 [mubritinib]
In short: as §1

[11] = compound: NC(=O)Nc1cc(-c2cccc(F)c2)sc1C(=O)N[C@H]1CCCNC1
In short: as §1

[12] = compound: NC(=O)c1cnc(N[C@@H]2CCCC[C@@H]2N)nc1Nc1cccc(-n2nccn2)c1
In short: as §1

[13] = compound: NC1(c2ccc(-c3nc4ccn5c(=O)[nH]nc5c4cc3-c3ccccc3)cc2)CCC1
In short: as §1

[14] = compound: NCC(=O)Nc1ccc(-n2nc(C(F)(F)F)cc2-c2ccc3c(ccc4ccccc43)c2)cc1
In short: as §1

[15] = compound: Nc1ccccc1NC(=O)c1ccc(CNC(=O)OCc2cccnc2)cc1 [entinostat]
In short: as §1

[16] = compound: O=C(CCCCCCC(=O)Nc1ccccc1)NO [vorinostat]
In short: as §1

[17] = compound: O=C(CCCCCCNC(=O)c1cnc(N(c2ccccc2)c2ccccc2Cl)nc1)NO [citarinostat]
In short: as §1

[18] = compound: O=C(O)c1ccc2c(c1)nc(Nc1cccc(Cl)c1)c1ccncc12 [silmitasertib]
In short: as §1

[19] = compound: O=C1NC(=O)C(c2cnc3ccccn23)=C1c1cn2c3c(cc(F)cc13)CN(C(=O)N1CCCCC1)CC2
In short: as §1

[20] = compound: c1cc(OCCN2CCCCC2)cc(-c2n[nH]c3ccc(-c4nnc[nH]4)cc23)c1
In short: as §1

Measured: log2 fold change

NUP50 (UniProt Q9UKX7)
inactive: [1] -0.037 | [2] -0.02 | [3] 0.004 | [4] -0.02 | [5] -0.03 | [6] -0.02 | [7] 0.019 | [8] 0.033 | [9] 0.024 | [10] 0.044 | [11] 0.017 | [12] -0.01 | [13] 0.027 | [14] 0.025 | [15] -0.012 | [16] -0.042 | [17] 0.038 | [18] 0.003 | [19] -0.062 | [20] -0.012

OPLAH (UniProt O14841)
inactive: [1] -0.07 | [2] 0.015 | [3] 0 | [4] 0.016 | [5] -0.042 | [6] -0.024 | [7] 0.053 | [8] 0.013 | [9] 0.003 | [10] 0.013 | [11] 0.012 | [12] -0.017 | [13] -0.057 | [14] -0.021 | [15] -0.017 | [16] 0.009 | [17] -0.015 | [18] -0.012 | [19] -0.052 | [20] -0.021

OXA1L (UniProt Q15070)
inactive: [1] -0.152 | [2] -0.032 | [3] 0.013 | [4] -0.019 | [5] -0.01 | [6] -0.029 | [7] 0.013 | [8] 0.038 | [9] 0.004 | [10] 0.003 | [11] 0.019 | [12] -0.021 | [13] -0.04 | [14] -0.025 | [15] -0.021 | [16] 0.005 | [17] 0.017 | [18] 0.02 | [19] -0.038 | [20] 0.113

NUP210 (UniProt Q8TEM1)
inactive: [1] -0.178 | [2] 0.053 | [3] -0.125 | [4] -0.009 | [5] -0.118 | [6] -0.038 | [7] 0.055 | [8] 0 | [9] -0.039 | [10] 0.034 | [11] 0.022 | [12] -0.173 | [13] -0.19 | [14] -0.126 | [15] 0.047 | [16] 0.054 | [17] 0.022 | [18] -0.033 | [19] -0.004 | [20] -0.023

NT5DC3 (UniProt Q86UY8)
inactive: [1] -0.041 | [2] -0.01 | [3] 0.003 | [4] 0.027 | [5] 0.054 | [6] 0.023 | [7] 0.064 | [8] -0.01 | [9] 0.052 | [10] 0.027 | [11] -0.028 | [12] -0.005 | [13] -0.047 | [14] -0.019 | [15] 0.032 | [16] 0.001 | [17] 0.057 | [18] 0.035 | [19] -0.036 | [20] -0.018

OTUD5 isoform 5 (UniProt Q96G74)
inactive: [1] -0.064 | [2] 0.044 | [3] 0.02 | [4] -0.044 | [5] -0.039 | [6] -0.033 | [7] 0.035 | [8] -0.151 | [9] -0.031 | [10] 0.062 | [11] -0.009 | [12] -0.013 | [13] -0.017 | [14] 0 | [15] 0.016 | [16] 0.017 | [17] 0.044 | [18] -0.004 | [19] -0.081 | [20] 0.227

OXNAD1 (UniProt Q96HP4)
inactive: [1] -0.031 | [2] 0 | [3] -0.066 | [4] 0.017 | [5] 0.033 | [6] 0.035 | [7] 0.053 | [8] 0.046 | [9] 0.06 | [10] -0.011 | [11] -0.04 | [12] -0.013 | [13] 0.004 | [14] -0.062 | [15] -0.021 | [16] -0.022 | [17] 0.018 | [18] 0.031 | [19] -0.023 | [20] 0.064

NSUN5 isoform 2 (UniProt Q96P11)
inactive: [1] -0.004 | [2] -0.018 | [3] 0.001 | [4] -0.035 | [5] -0.016 | [6] -0.083 | [7] -0.079 | [8] 0.125 | [9] -0.037 | [10] -0.071 | [11] -0.002 | [12] 0.103 | [13] -0.137 | [14] 0.054 | [15] 0.06 | [16] 0.07 | [17] -0.015 | [18] -0.107 | [19] 0.125 | [20] -0.083

PAAT (UniProt Q9H8K7)
inactive: [1] -0.009 | [2] -0.006 | [3] -0.137 | [4] -0.015 | [5] -0.014 | [6] 0.133 | [7] -0.024 | [8] 0 | [9] 0.016 | [10] 0.09 | [11] -0.177 | [12] -0.022 | [13] -0.194 | [14] 0.059 | [15] -0.017 | [16] -0.028 | [17] 0 | [18] 0.202 | [19] -0.083 | [20] -0.188

NUP93 (UniProt Q8N1F7)
inactive: [1] -0.007 | [2] 0.114 | [3] -0.033 | [4] -0.052 | [5] -0.092 | [6] 0.021 | [7] -0.024 | [8] -0.047 | [9] -0.058 | [10] 0.014 | [11] 0.004 | [12] -0.029 | [13] -0.118 | [14] -0.066 | [15] 0.057 | [16] 0.169 | [17] 0.074 | [18] 0.05 | [19] 0.035 | [20] -0.043

NUDCD3 (UniProt Q8IVD9)
inactive: [1] -0.047 | [2] 0.024 | [3] -0.128 | [4] -0.121 | [5] -0.078 | [6] 0.02 | [7] -0.02 | [8] -0.003 | [9] -0.089 | [10] 0.067 | [11] 0.044 | [12] -0.038 | [13] -0.146 | [14] -0.068 | [15] 0.011 | [16] 0.08 | [17] 0.017 | [18] 0.05 | [19] -0.028 | [20] -0.072

ORC3 isoform 2 (UniProt Q9UBD5)
inactive: [1] -0.032 | [2] 0.099 | [3] -0.262 | [4] -0.254 | [5] -0.298 | [6] -0.118 | [7] 0.067 | [8] 0.109 | [9] 0.086 | [10] 0.029 | [11] 0.018 | [12] -0.09 | [13] -0.093 | [14] -0.142 | [15] -0.004 | [16] 0.236 | [17] 0.023 | [18] 0.058 | [19] 0.008 | [20] -0.188

OSTC (UniProt Q9NRP0)
inactive: [1] -0.137 | [2] 0.027 | [3] -0.047 | [4] -0.013 | [5] -0.059 | [6] -0.029 | [7] 0.057 | [8] 0.069 | [9] -0.013 | [10] 0.044 | [11] -0.062 | [12] 0.028 | [13] -0.107 | [14] -0.134 | [15] 0.039 | [16] -0.001 | [17] 0.074 | [18] -0.011 | [19] 0.05 | [20] -0.067

NUDT4 (UniProt Q9NZJ9)
inactive: [1] -0.041 | [2] 0.035 | [3] -0.082 | [4] -0.055 | [5] -0.06 | [6] 0.006 | [7] 0.024 | [8] -0.01 | [9] -0.024 | [10] 0.05 | [11] -0.02 | [12] -0.003 | [13] -0.123 | [14] -0.095 | [15] 0.101 | [16] 0.067 | [17] 0.062 | [18] 0.001 | [19] -0.027 | [20] -0.05

NSUN2 (UniProt Q08J23)
inactive: [1] -0.059 | [2] 0.056 | [3] -0.038 | [4] -0.271 | [5] -0.146 | [6] -0.222 | [7] -0.034 | [8] -0.053 | [9] -0.033 | [10] -0.045 | [11] 0.029 | [12] -0.246 | [13] -0.106 | [14] -0.027 | [15] 0.01 | [16] 0.137 | [17] 0.013 | [18] 0.046 | [19] -0.026 | [20] -0.075

3 successive records already listed, for reference:
ORC3 isoform 2 (UniProt Q9UBD5)
inactive: [1] -0.032 | [2] 0.099 | [3] -0.262 | [4] -0.254 | [5] -0.298 | [6] -0.118 | [7] 0.067 | [8] 0.109 | [9] 0.086 | [10] 0.029 | [11] 0.018 | [12] -0.09 | [13] -0.093 | [14] -0.142 | [15] -0.004 | [16] 0.236 | [17] 0.023 | [18] 0.058 | [19] 0.008 | [20] -0.188

OSTC (UniProt Q9NRP0)
inactive: [1] -0.137 | [2] 0.027 | [3] -0.047 | [4] -0.013 | [5] -0.059 | [6] -0.029 | [7] 0.057 | [8] 0.069 | [9] -0.013 | [10] 0.044 | [11] -0.062 | [12] 0.028 | [13] -0.107 | [14] -0.134 | [15] 0.039 | [16] -0.001 | [17] 0.074 | [18] -0.011 | [19] 0.05 | [20] -0.067

NUDT4 (UniProt Q9NZJ9)
inactive: [1] -0.041 | [2] 0.035 | [3] -0.082 | [4] -0.055 | [5] -0.06 | [6] 0.006 | [7] 0.024 | [8] -0.01 | [9] -0.024 | [10] 0.05 | [11] -0.02 | [12] -0.003 | [13] -0.123 | [14] -0.095 | [15] 0.101 | [16] 0.067 | [17] 0.062 | [18] 0.001 | [19] -0.027 | [20] -0.05

The listing continues:

OXSR1 (UniProt O95747)
inactive: [1] -0.014 | [2] -0.012 | [3] -0.083 | [4] -0.029 | [5] -0.179 | [6] 0.031 | [7] 0.038 | [8] 0.005 | [9] -0.117 | [10] -0.05 | [11] -0.014 | [12] -0.048 | [13] -0.151 | [14] -0.064 | [15] 0.031 | [16] 0.042 | [17] 0.045 | [18] -0.071 | [19] -0.007 | [20] 0.018
